The full ranking holds about 33,000 sequences; the median of “E-score (-0.5 to 0.5)” is about -0.016, and the highest 2% start at about 0.3. This is one part of the list.
target: T1, Yer184c (UniProt P39961); test: PBM E-score (8-mer binding enrichment) (E-score (-0.5 to 0.5)); higher = stronger / more preferred TF binding; conditions: protein concentration: 100 nM; construct: GST-full length
T1 sequence: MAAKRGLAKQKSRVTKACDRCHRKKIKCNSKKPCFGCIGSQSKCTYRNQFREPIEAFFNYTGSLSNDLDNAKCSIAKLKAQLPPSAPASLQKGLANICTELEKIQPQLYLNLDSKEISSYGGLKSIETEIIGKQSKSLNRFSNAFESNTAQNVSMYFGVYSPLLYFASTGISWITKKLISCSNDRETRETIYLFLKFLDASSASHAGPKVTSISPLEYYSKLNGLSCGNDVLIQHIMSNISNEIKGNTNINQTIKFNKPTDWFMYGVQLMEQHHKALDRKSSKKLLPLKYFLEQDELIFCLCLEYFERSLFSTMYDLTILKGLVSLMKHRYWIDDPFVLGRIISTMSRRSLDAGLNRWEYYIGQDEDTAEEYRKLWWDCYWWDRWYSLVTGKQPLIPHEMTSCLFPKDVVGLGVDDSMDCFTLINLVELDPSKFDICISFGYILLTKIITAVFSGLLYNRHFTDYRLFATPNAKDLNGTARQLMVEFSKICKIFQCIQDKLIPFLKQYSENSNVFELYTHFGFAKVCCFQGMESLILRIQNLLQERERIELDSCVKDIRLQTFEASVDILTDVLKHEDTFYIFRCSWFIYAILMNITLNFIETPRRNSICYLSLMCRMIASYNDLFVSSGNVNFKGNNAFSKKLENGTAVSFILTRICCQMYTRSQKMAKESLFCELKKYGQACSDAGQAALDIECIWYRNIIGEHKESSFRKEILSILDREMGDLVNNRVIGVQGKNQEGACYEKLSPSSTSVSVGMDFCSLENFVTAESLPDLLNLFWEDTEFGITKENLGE
Protocol: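 Universal 'all 10-mer' protein binding microarrays (Agilent AMADID 015681) probed with GST-tagged S. cerevisiae TFs (full-length or DBD) made by in vitro transcription/translation (PURExpress), about 100-200 nM. Bound TF was detected with fluorescent anti-GST. Each ungapped 8-mer (which stands for itself and its reverse complement) is scored by the PBM enrichment score (E-score), a modified Wilcoxon-Mann-Whitney statistic from -0.5 to +0.5, computed with the Universal PBM Analysis Suite. Scale: above 0.35 generally sequence-specific binding.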

Sequence	PBM E-score
AAAGAACA	0.215
CAGATTAG	-0.152
CGGGAAAA	0.244
CCTATAAA	-0.134
GCCGGCGA	0.311
GTGTTCGA	0.035
CGTTTTCA	0.159
CCGCCCCG	0.289
ATAAAATA	0.157
AAACGTCC	-0.0995
GATGTCGC	-0.173
GATTGGGA	-0.133
CTCATACC	0.0516
CGCTAGTA	0.148
CTGGTGGC	-0.183
GCTTCACA	-0.114
AATCTCAG	-0.253
ACTTCTTG	-0.129
AGTCGCAT	-0.0743
ATTATGAA	0.202
GCGAGCAC	-0.213
GCTCAAAC	0.19
AGGTGGAC	-0.288
GTTCCGCA	0.268
GAACGGTA	0.0832

Sequence	PBM E-score
CCAGTACA	-0.119
ATCTTGAC	-0.0748
AGGGGTTC	-0.305
AATTGGCA	-0.0934
GGTCCAGA	-0.126
CGTGAATC	0.0513
AAGTAGAT	0.0939
ACGATGCG	-0.129
CGCTCACG	0.0198
AACGTACG	-0.119
ACTGCCTG	-0.0789
ACGTGAAT	-0.0871
CGTCTACC	0.0232
GCGGCTAC	0.0898
CCGCGGCG	0.326
CCAGTGAA	-0.0934
GACGCCTA	-0.199
TCCCCAAA	-0.12
CAAAAGCC	0.0972
CGATTGTC	0.0877
CTGATCGA	-0.172
AATACAGC	0.0754
ACTTCATC	0.0593
AGGTCGTG	-0.192
GAAGGTAC	-0.106

Sequence	PBM E-score
CAGCGCAG	-0.0406
CACGCTGA	-0.128
CAAGACCC	-0.225
AAGACTCG	-0.00603
ATTCTTCG	0.123
AGTTCACC	0.172
GAGGCCAC	-0.138
CGTGATAA	0.14
CCTCACAG	-0.0554
GTTTGGTA	0.139
AAAGCCTT	-0.135
CTGCATAA	0.11
CAATGATA	0.0278
AGGCCACA	-0.197
AGGTAATA	0.136
GTGGCCCA	-0.182
ATCCCTCG	-0.0408
AGTGTGCA	-0.0513
CAAGACGA	-0.0111
ACGTTGAT	0.0751
CTGGCGGC	0.0137
GTAGCGTA	-0.205
ATTCGATG	-0.0297
ATCGCTCA	-0.165
CATAGGTA	-0.151

Already shown: an excerpt of the list.
Sequence	PBM E-score
GTTTGGTA	0.139
AAAGCCTT	-0.135
CTGCATAA	0.11
CAATGATA	0.0278
AGGCCACA	-0.197
AGGTAATA	0.136

Later entries

Sequence	PBM E-score
ATTTGAGC	0.0535
ACAGCCCA	-0.0828
CCGACCGG	0.241
CGATGCAA	-0.00579
ATGACATA	0.00811
AAGGCTGA	-0.125
AAATTGTG	-0.172
AAGAACAC	0.165
ACCGAACT	0.306
CTGGTTTC	0.119
AGCACAAC	0.161
GGTCGTGA	-0.142
ATACTTTG	0.138
GAGAACCC	-0.163
TCAATGGA	-0.0551
CTCTTATA	0.145
AGATGCAG	-0.0823
AATTATCT	0.184
CAGTGCAC	-0.0888
ACCTGACC	-0.256
AAAAACAC	0.0944
GACCCCAC	-0.0899
ACCTTGCT	-0.104
ATATGGAT	-0.0237
TAGCGGAA	0.177

Sequence	PBM E-score
ACAGCTAG	-0.233
ATCCACTG	-0.143
CGGCACGC	0.106
GGGGATCA	-0.321
ACTTCGGG	0.0741
CTGTCTTC	0.0575
CAAAGCAC	-0.00373
AAAGTCCC	-0.107
GATAGAGC	0.00418
AAAGTTCA	0.125
ACTTTACG	0.00111
TGCCAAAA	0.097
GTATTAAC	0.133
CGTGGGAA	-0.137
AAATTATT	0.212
CCCGAATA	0.196
AAGTAGAC	0.0714
ACACAGGG	-0.213
GGGCTTGA	-0.0787
CCAATTGC	-0.105
TGCTGTAA	0.182
CATGGCAA	-0.141
AACCTGAA	-0.192
GCCGAACA	0.329
TTCAACAA	0.239

Sequence	PBM E-score
CCAACTAG	-0.157
AGGCCGAA	0.302
GACATTAC	0.105
CACATCCC	-0.128
GGCGATAA	-0.0853
ATGATGAA	0.194
CATAGTGG	-0.224
AGAAGCAG	-0.00452
CTCTGGTA	-0.203
AGCCGTGG	-0.0282
GACGAGGA	0.0167
ACAAGGTG	0.0514
ACCAACTG	-0.164
TATCGCGA	0.159
AGATCGTC	-0.181
AGCAGATA	0.0297
CTTGCATA	-0.0489
GACTCAAC	0.0381
ATTTTGAA	0.255
ATTTACGG	0.216
GATACAAC	0.213
CCACTAAC	-0.0716
TGCATGAA	0.023
CACCGTCG	-0.0401
ATTTAGCC	0.0558

Sequence	PBM E-score
CCATTTAC	0.0263
AAAGAGGT	0.0641
ACCACTAT	-0.156
AAGGGATT	-0.111
ACTGAGGA	-0.0152
ACCCAGCG	-0.131
GAGATGGC	0.128
GTCCAGAA	0.0596
CATAGCGA	-0.0576
CGTCACCC	-0.257
AGGTGGGG	-0.17
GTCCCTGA	-0.278
CACAGTTC	0.012
CACTTTCG	0.0177
AAAATGGC	0.0159
TGCATTAA	0.12
TCTTACCA	-0.0281
CCGGCAAC	0.293
AGGGACGA	0.0287
CAAGTAGA	-0.0482
CTAGGAAA	-0.0006
ATGACTGG	-0.184
CCGTCCCG	0.0888
CCTTATGC	-0.0769
GAGCTATC	-0.081

Sequence	PBM E-score
GCGGCGGA	0.193
TAATAGAA	0.187
AGTCGAGG	-0.209
ACTTACCA	-0.108
CCTTGGGA	0.035
ACCCCGAC	-0.0878
CGGGCTAA	0.0904
GAACGAAC	0.0755
AAAGTCCA	-0.0162
AGCCTGGA	-0.221
AATCCCTA	-0.0697
ACTATCCT	-0.225
AGGGCTAG	-0.243
CTCAACTA	0.112
AGGGTCAG	-0.273
AGACAGAC	0.161
ATATAGAA	0.188
GTAGACTA	-0.11
TAATGCCA	0.0632
GCCTCAAC	0.00399
ACTTCCTG	-0.118
ATACTTAC	0.197
GAATCAAA	0.0657
CGATGCAG	-0.202
TAGACACA	-0.0462

Sequence	PBM E-score
AGTTGTCA	0.179
TCTATCCA	0.0326
ATAAGGGG	-0.2
ACTTATCA	-0.067
CCTACCGC	-0.106
AGGTGTTC	-0.121
CAGGGGGG	-0.447
AGCTATTG	0.013
AAGAAGAA	0.0751
GCGATATA	0.0164
ATGTCGCA	-0.0211
CAGAGGGA	-0.254
CGGAACAC	0.356
ATACGCGC	-0.00369
AGTCGTTG	-0.222
CCACGCTA	-0.148
CAGTGTCA	-0.0526
CTCTACGA	-0.197
TACATAGA	-0.0207
AGCCTCCG	-0.0175
GATTGGAA	0.0146
GATACTAA	0.263
AAGTCATA	0.0621
GTCTCACA	-0.0501
AGAGGGGA	-0.286

Six records drawn at random from the list so far, as already listed:
Sequence	PBM E-score
ATGTCGCA	-0.0211
CCACGCTA	-0.148
CTCTACGA	-0.197
TACATAGA	-0.0207
AGTTGTCA	0.179
AGTCGTTG	-0.222

In a second layout: results already given.
TAGACACA
  PBM E-score: -0.0462
AGTTGTCA
  PBM E-score: 0.179
TCTATCCA
  PBM E-score: 0.0326
ATAAGGGG
  PBM E-score: -0.2

More results

Sequence	PBM E-score
AACCGGCG	0.306
ATGGAAAG	-0.00552
GCAACCGC	0.149
ACGCAAGA	-0.0555
ACAGGTTG	-0.0831
CCGTTTCA	0.17
AGTCCTGG	-0.181
AGGAAAGA	-0.0951
ACCCGTCG	-0.0686
AACTTTGA	0.154
CGCATCTC	-0.0244
AGCACTCG	-0.0898
TCCTCGCA	-0.124
CAAAGATG	-0.128
CCATCCTC	-0.0331
GAAACACA	0.212
GACCCATC	-0.16
CGCGGAAA	0.325
CAGCGACA	-0.194
CTGCTGCA	-0.0619
CGCAGAAC	0.148
CATTTCGG	0.157
CCACTTCC	0.0378
ACGGATAA	0.299
AGTTTGAC	0.0194

Sequence	PBM E-score
ATCAAGAC	0.0705
CCTCGTCA	0.02
ACTCAGTG	-0.237
CTAGTTGA	0.0658
CCCTGTAA	-0.0416
CTCACTAC	0.104
AAAAAGCT	-0.0116
AATTAGAG	0.0326
AGGTTAAA	-0.00589
CGAGGGCG	-0.112
ACACAGAC	0.153
ACCATATC	-0.0788
ATATATGG	0.128
AGTCTAAG	0.109
CAGCTTGA	-0.0644
GCAGTTCC	0.00809
AGTACATA	0.137
ATTCTCAA	0.0586
CGCTCCCC	-0.337
TCCTCAAA	0.0776
GGCCGACC	0.028
TATGCAAA	0.00152
AAATGCTA	0.0591
AATGCATC	0.033
AGAATATA	-0.0416

Sequence	PBM E-score
AACGGGCA	-0.0355
ACGATTCA	0.0112
AGGGTAAT	-0.053
CGGAGGCC	-0.0369
CACTGGCA	-0.033
ATATTCTG	-0.0103
TCATACAA	0.168
CCAGCTCG	-0.117
CTATTGAA	0.142
AATACGTC	0.0603
CTTACGCA	-0.183
CTAAGGTA	0.0764
ACTTGTCC	-0.0136
ATTAGCGA	-0.0417
ATTACATC	0.189
TTAAGTAA	0.149
CTAAGGAC	-0.135
ATTTATGC	0.0222
GACAAAAC	0.0933
ACGCTTAG	-0.132
CAGGTTCG	-0.0267
AATCGTCT	-0.0451
AGACTACA	-0.165
AGTGTATG	-0.0241
AGGCGTCA	-0.298

Sequence	PBM E-score
AAGCATTC	-0.0221
ATTCCGAG	0.353
CGGGGACC	-0.0241
GAGAGACA	-0.101
CGTAATCC	0.12
ACTGTACC	-0.0502
AGCCGCAG	-0.13
AGATAAGG	-0.0938
AGGTATAT	0.0334
ACAAGCCT	-0.102
TAGTGACA	0.053
GGTAGCTA	-0.271
GTCTGCAA	-0.0236
AGGGGATC	-0.237
AGCGACCC	-0.136
ATTGTCAG	0.127
ACACGCTC	0.122
GGGGCGCA	-0.328
ACATTGAA	0.183
ATCTAGCC	0.00276
CAGACTCG	-0.218
ACCTCAGC	-0.082
CTTGCCGA	0.22
CCGCACCG	0.0286
ATTAGCTC	0.00455

Sequence	PBM E-score
ATAACCTA	-0.0572
AGGGCATG	-0.163
ACCGTGAA	0.202
AGCCTACA	-0.0273
GGGCCTGA	-0.276
CACTCGCC	-0.0526
GACGAATA	0.215
CGTACAGA	-0.0312
ATCTTCAA	0.187
AATATGAG	0.0728
AAGGAATG	-0.0413
ACAGGTGC	-0.0628
AGTGCCAG	-0.28
ACGTAGTA	0.0723
ACGGGCGA	0.0137
ACTGATGG	-0.135
CAACAGCC	0.0881
CCGGTACA	0.278
CACGAAGA	0.107

— the supplement of paper PMC3334620
